## Primary screen of a compound library

Amino acid sequences for entries named in this document (tags omitted).
UniProt E9BF75, entry or part of it: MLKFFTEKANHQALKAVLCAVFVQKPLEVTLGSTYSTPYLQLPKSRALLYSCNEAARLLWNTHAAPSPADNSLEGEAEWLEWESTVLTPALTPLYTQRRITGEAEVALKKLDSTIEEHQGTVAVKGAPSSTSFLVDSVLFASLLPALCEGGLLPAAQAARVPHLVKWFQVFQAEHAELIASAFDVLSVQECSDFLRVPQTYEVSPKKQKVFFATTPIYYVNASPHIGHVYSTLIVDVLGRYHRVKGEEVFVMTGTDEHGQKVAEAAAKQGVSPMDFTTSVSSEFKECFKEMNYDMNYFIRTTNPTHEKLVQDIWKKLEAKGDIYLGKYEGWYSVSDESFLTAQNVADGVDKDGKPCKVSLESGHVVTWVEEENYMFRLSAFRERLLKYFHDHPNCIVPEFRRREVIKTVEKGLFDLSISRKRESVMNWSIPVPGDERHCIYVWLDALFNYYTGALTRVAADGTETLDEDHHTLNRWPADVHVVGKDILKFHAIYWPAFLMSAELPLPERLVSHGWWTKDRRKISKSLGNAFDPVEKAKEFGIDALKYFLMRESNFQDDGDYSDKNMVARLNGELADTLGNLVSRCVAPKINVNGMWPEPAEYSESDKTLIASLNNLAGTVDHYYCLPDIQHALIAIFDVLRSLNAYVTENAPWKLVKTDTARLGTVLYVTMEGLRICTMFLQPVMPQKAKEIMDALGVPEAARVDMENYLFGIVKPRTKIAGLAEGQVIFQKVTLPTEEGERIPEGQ

Measurements from “University of Dundee, Small-Polar-MMV Screening Library” (2021), ChEMBL document CHEMBL3988442.

A: 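Primary screen of methionyl-tRNA synthetase; the read-out is not stated. Target: Methionyl-tRNA synthetase (putative), Leishmania donovani (UniProt E9BF75). The test concentration is not given. Values are per cent inhibition. Of about 68,000 compounds tested this way, about 24 (0.035%) reached 50% or more in at least one test.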
B: 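Assay on Mycobacterium tuberculosis, filed only as a heat shock assay from Cornell; the read-out is not stated. The concentration is filed as 10 mM, unlikely as a test dose, so the dose is not known. Higher reads as stronger inhibition (inferred: compounds with an IC50 in retests scored well above the rest). About 69,000 compounds were tested under these conditions; 1.4% (about 930) showed 50% or more at least once.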

Results are percentages, as filed.
The controls that fix the scale are not given in the record; negative values are as filed.
This is an unselected part of the compounds tested.

- CC1N(c2cnn(C)c2)C(=O)COC12CCN(Cc1ccco1)CC2.O=C(O)C(F)(F)F (stereo not shown) | B: -0.9741%
- Cc1cc(NC(=O)N2CCN(c3nc(C)c(C)s3)CC2)no1 | A: 16.19%; B: 10.81%
- CC(C)C(NC(=O)c1ccccc1)C(=O)N1CCC2(CC1)OCCO2 (stereo not shown) | A: 14.14%; B: 5.415%
- CC(=O)N1CCC2(CC1)CC(NS(C)(=O)=O)c1ccccc1O2 (stereo not shown) | A: 6.857%; B: 8.064%
- Cn1ccnc1CN1CCN(CC(O)c2cccc(F)c2)CC1 (stereo not shown) | A: 9.722%; B: -5.329%
- CCc1cnc(C)nc1NCCN1CCCCCC1 | A: 20.47%; B: 5.56%
- Cc1ccc(N2CCCC(N(C)Cc3ccccn3)C2)nn1 (stereo not shown) | A: 14.66%; B: -21.94%
- Cc1nn(C)c(C)c1C1CCCN1C(=O)CCc1cscn1 (stereo not shown) | A: 7.087%; B: 0.1516%
- COCCN(CC1CCCN(C2Cc3ccccc3C2)C1)C(=O)CO (stereo not shown) | A: 8.271%; B: -21.33%
- CSCc1cc(F)ccc1CNCc1cccnc1 | A: 12.31%; B: -2.534%
- COCCNC(=O)C(C)n1cc(Br)cn1 (stereo not shown) | A: 10.24%; B: -14.6%
- OCC1CCCN1c1cc(NCCc2ccsc2)ncn1 (stereo not shown) | A: 19.82%; B: -7.244%
- COc1ccccc1N1CCC(NCc2c(C)noc2C)C1 (stereo not shown) | A: 3.249%; B: -23.49%
- N#Cc1cccc(N2CCCC3(C2)CN(c2ncccn2)CCO3)n1 (stereo not shown) | A: 16.3%
- CC1(C)O[C@@](C)([C@H]2CC3(CCN(c4ncccn4)CC3)CO2)CC[C@@H]1O | A: 6.977%
- COCCC(=O)N1CC[C@@H](N2CCOCC2)[C@@H]1Cc1ccccc1.O=C(O)C(F)(F)F | B: -10.34%
- Cc1noc(C)c1CN(Cc1ccccc1)C(C)CN1CCOCC1 (stereo not shown) | A: 3.833%; B: -21.78%
- CC(NC(=O)NCCCO)c1ccc2c(c1)OCCO2 (stereo not shown) | A: 6.667%; B: -4.393%
- CCCc1nc(C)c(C(=O)NC2CCN(c3ncccn3)CC2)s1 | A: 14.34%; B: -0.7125%
- CC(C)CC(=O)N1CCCC1c1ccsc1 (stereo not shown) | A: 11.61%; B: -13.81%
- c1cncc(OCCNC2Cc3ccccc3C2)c1 | A: 18.51%; B: -13.84%
- O=C(O)C(F)(F)F.O=C1CCCN1Cc1nnc2n1CCN(Cc1ccco1)CC2 | B: 8.62%

The last 3 entries again:

With CC(C)CC(=O)N1CCCC1c1ccsc1 (stereo not shown) the screen gave A: 11.61%; B: -13.81%.
With c1cncc(OCCNC2Cc3ccccc3C2)c1 the screen gave A: 18.51%; B: -13.84%.
With O=C(O)C(F)(F)F.O=C1CCCN1Cc1nnc2n1CCN(Cc1ccco1)CC2 the screen gave B: 8.62%.